For 22 sequences, binding signal (log2 enrichment (interaction score)) results are on record in publication PMC8384837.

Numbering of substitutions follows the chain as printed. The list shows a part of the results. For part of these data: At the low end of the ranking, values are background and their order means little. For part of these data: Construct or isoform of the protein are uncertain. Bounds are passed on as bounds.

Common to all, as to details: yeast three-hybrid, YBZ-1, SC-Leu-His + 0.5 mM 3-AT, 4 days
In experiment [1] the target is T1, PUM1 PUF domain R2-VFQ R3-THE R4-TFR N899V + Y900F + C935T + R936H + Q939E + N971T + H972F + Q975R (UniProt Q14671).
T1 sequence: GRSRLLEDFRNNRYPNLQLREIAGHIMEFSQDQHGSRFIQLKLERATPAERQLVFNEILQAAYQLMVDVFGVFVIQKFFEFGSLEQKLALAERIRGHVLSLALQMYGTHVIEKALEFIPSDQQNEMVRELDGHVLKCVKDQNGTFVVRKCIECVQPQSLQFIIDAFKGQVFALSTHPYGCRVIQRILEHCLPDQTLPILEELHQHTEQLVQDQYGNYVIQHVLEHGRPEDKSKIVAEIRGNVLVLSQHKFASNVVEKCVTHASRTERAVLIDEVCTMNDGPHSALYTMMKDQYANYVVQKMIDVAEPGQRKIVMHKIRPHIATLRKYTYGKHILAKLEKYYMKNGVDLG

Experiment [2] addresses T2, PUM1 PUF domain R3-THE R4-TFR C935T + R936H + Q939E + N971T + H972F + Q975R (UniProt Q14671).
T2 sequence: T1 sequence with V72N, F73Y

Experiment [3] concerns the target T3, PUM1 PUF domain R3-THE R4-TFR R7-NPG C935T + R936H + Q939E + N971T + H972F + Q975R + S1079N + N1080P + E1083G (Homo sapiens) (UniProt Q14671).
T3 sequence: T1 sequence with V72N, F73Y, S252N, N253P, E256G

Experiment [4] deals with T4, PUM1 PUF domain R5-PHQ R6-SWD C1007P + R1008H + N1043S + Y1044W + Q1047D (UniProt Q14671).
T4 sequence: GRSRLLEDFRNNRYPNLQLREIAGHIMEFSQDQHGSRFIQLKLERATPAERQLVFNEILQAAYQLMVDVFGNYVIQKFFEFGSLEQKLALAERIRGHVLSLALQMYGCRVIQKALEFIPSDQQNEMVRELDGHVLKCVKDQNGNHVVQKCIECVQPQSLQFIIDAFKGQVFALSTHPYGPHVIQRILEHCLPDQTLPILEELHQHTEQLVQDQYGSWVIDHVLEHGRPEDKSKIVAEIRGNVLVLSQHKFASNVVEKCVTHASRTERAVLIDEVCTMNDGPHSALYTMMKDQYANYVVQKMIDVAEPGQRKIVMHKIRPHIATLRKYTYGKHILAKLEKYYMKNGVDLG

“GGCUAGAACUAGUGGAUCCCCCGGCGCCCGGCGGCUCGAGCCCGGGUAAGUAAAAGUCGUCUGCAUGCCGCCGGGCGCCAUGCCUGCAGGUCGACUCUAGAAAACAUG”: the figures for the binding signal (log2 enrichment (interaction score)) in experiment [1] and in experiment [2] were below -6.53 and below -6.97, respectively.

“GGCUAGAACUAGUGGAUCCCCCGGCGCCCGGCGGCUCGAGCCCGGGUAAGUGUAUGUGGUCUGCAUGCCGCCGGGCGCCAUGCCUGCAGGUCGACUCUAGAAAACAUG”: the binding signal (log2 enrichment (interaction score)) in experiment [1] is -5.81; in experiment [2] it was -6.01.

In the case of “GGCUAGAACUAGUGGAUCCCCCGGCGCCCGGCGGCUCGAGCCCGGGUAAGGUCGAGUAGUCUGCAUGCCGCCGGGCGCCAUGCCUGCAGGUCGACUCUAGAAAACAUG”, the binding signal (log2 enrichment (interaction score)) in experiment [1] was -5.99; in experiment [2] it was -7.29.

For the sequence “GGCUAGAACUAGUGGAUCCCCCGGCGCCCGGCGGCUCGAGCCCGGGUAAGAGUUAGACGUCUGCAUGCCGCCGGGCGCCAUGCCUGCAGGUCGACUCUAGAAAACAUG”, the binding signal (log2 enrichment (interaction score)) in experiment [1] is -5.62; in experiment [2], below -7.55.

Turning to “GGCUAGAACUAGUGGAUCCCCCGGCGCCCGGCGGCUCGAGCCCGGGUAAGUUUACGCAGUCUGCAUGCCGCCGGGCGCCAUGCCUGCAGGUCGACUCUAGAAAACAUG”, the binding signal (log2 enrichment (interaction score)) in experiment [1] was -5.99; in experiment [2] it was -6.38.

Take “GGCUAGAACUAGUGGAUCCCCCGGCGCCCGGCGGCUCGAGCCCGGGUAAGUCUAAGACGUCUGCAUGCCGCCGGGCGCCAUGCCUGCAGGUCGACUCUAGAAAACAUG”: the binding signal (log2 enrichment (interaction score)) was -4.6 in experiment [1] and below -7.89 in experiment [2].

Turning to “GGCUAGAACUAGUGGAUCCCCCGGCGCCCGGCGGCUCGAGCCCGGGUAAGUUUACCAAGUCUGCAUGCCGCCGGGCGCCAUGCCUGCAGGUCGACUCUAGAAAACAUG”, the binding signal (log2 enrichment (interaction score)) in experiment [1] was -5.57; in experiment [2] it was -6.89.

On to “GGCUAGAACUAGUGGAUCCCCCGGCGCCCGGCGGCUCGAGCCCGGGUAAGUCUAAACAGUCUGCAUGCCGCCGGGCGCCAUGCCUGCAGGUCGACUCUAGAAAACAUG”, for which the values for the binding signal (log2 enrichment (interaction score)) in experiment [1] and in experiment [2] were -5.71 and below -6.52, respectively.

For “GGCUAGAACUAGUGGAUCCCCCGGCGCCCGGCGGCUCGAGCCCGGGUAAGUGAAGCCGGUCUGCAUGCCGCCGGGCGCCAUGCCUGCAGGUCGACUCUAGAAAACAUG”, the binding signal (log2 enrichment (interaction score)) in experiment [1] is -4.83; in experiment [2], -5.12.

As for “GGCUAGAACUAGUGGAUCCCCCGGCGCCCGGCGGCUCGAGCCCGGGUAAGUUUACUUGGUCUGCAUGCCGCCGGGCGCCAUGCCUGCAGGUCGACUCUAGAAAACAUG”, the binding signal (log2 enrichment (interaction score)) is -5.75 in experiment [1] and -7.7 in experiment [2].

For the sequence “GGCUAGAACUAGUGGAUCCCCCGGCGCCCGGCGGCUCGAGCCCGGGUAAGAUGAAGGAGUCUGCAUGCCGCCGGGCGCCAUGCCUGCAGGUCGACUCUAGAAAACAUG”, the binding signal (log2 enrichment (interaction score)) was -5.69 in experiment [1], -7.06 in experiment [2] and -0.85 in experiment [3].

Take “GGCUAGAACUAGUGGAUCCCCCGGCGCCCGGCGGCUCGAGCCCGGGUAAGAUAAAGUAGUCUGCAUGCCGCCGGGCGCCAUGCCUGCAGGUCGACUCUAGAAAACAUG”: the binding signal (log2 enrichment (interaction score)) was -5.64 in experiment [1] and -7.72 in experiment [2].

As for “GGCUAGAACUAGUGGAUCCCCCGGCGCCCGGCGGCUCGAGCCCGGGUAAGGCCAGGUCGUCUGCAUGCCGCCGGGCGCCAUGCCUGCAGGUCGACUCUAGAAAACAUG”, the binding signal (log2 enrichment (interaction score)) in experiment [1] is -5.47; in experiment [2] it was -7.36.

In the case of “GGCUAGAACUAGUGGAUCCCCCGGCGCCCGGCGGCUCGAGCCCGGGUAAGUGCAAGUGGUCUGCAUGCCGCCGGGCGCCAUGCCUGCAGGUCGACUCUAGAAAACAUG”, the binding signal (log2 enrichment (interaction score)) is -5.61 in experiment [1] and -7.21 in experiment [2].

Take “GGCUAGAACUAGUGGAUCCCCCGGCGCCCGGCGGCUCGAGCCCGGGUAAGGGGAGGAUGUCUGCAUGCCGCCGGGCGCCAUGCCUGCAGGUCGACUCUAGAAAACAUG”: the values for the binding signal (log2 enrichment (interaction score)) in experiment [1] and in experiment [2] were -5.68 and below -6.81, respectively.

On to “GGCUAGAACUAGUGGAUCCCCCGGCGCCCGGCGGCUCGAGCCCGGGUAAGUUUCCGAGGUCUGCAUGCCGCCGGGCGCCAUGCCUGCAGGUCGACUCUAGAAAACAUG”, for which the values for the binding signal (log2 enrichment (interaction score)) in experiment [1] and in experiment [2] were -5.99 and -6.78, respectively.

Take “GGCUAGAACUAGUGGAUCCCCCGGCGCCCGGCGGCUCGAGCCCGGGUAAGUGUACCUAGUCUGCAUGCCGCCGGGCGCCAUGCCUGCAGGUCGACUCUAGAAAACAUG”: the binding signal (log2 enrichment (interaction score)) in experiment [1] is -5.41; in experiment [2], -3.63.

Regarding “GGCUAGAACUAGUGGAUCCCCCGGCGCCCGGCGGCUCGAGCCCGGGUAAGUUAACGCAGUCUGCAUGCCGCCGGGCGCCAUGCCUGCAGGUCGACUCUAGAAAACAUG”, the figures for the binding signal (log2 enrichment (interaction score)) in experiment [1], in experiment [2] and in experiment [3] were -5.09, -6.74 and below -0.91, respectively.

For “GGCUAGAACUAGUGGAUCCCCCGGCGCCCGGCGGCUCGAGCCCGGGUAAGUUGACGGGGUCUGCAUGCCGCCGGGCGCCAUGCCUGCAGGUCGACUCUAGAAAACAUG”, the binding signal (log2 enrichment (interaction score)) was -5.02 in experiment [1] and -6.97 in experiment [2].

Turning to “GGCUAGAACUAGUGGAUCCCCCGGCGCCCGGCGGCUCGAGCCCGGGUAAGUAUAAGUUGUCUGCAUGCCGCCGGGCGCCAUGCCUGCAGGUCGACUCUAGAAAACAUG”, the binding signal (log2 enrichment (interaction score)) in experiment [1] is -6.45; in experiment [2], -6.58; in experiment [3] it was -1.39; in experiment [4], -7.48.

For the sequence “GGCUAGAACUAGUGGAUCCCCCGGCGCCCGGCGGCUCGAGCCCGGGUAAGUGGAGCGCGUCUGCAUGCCGCCGGGCGCCAUGCCUGCAGGUCGACUCUAGAAAACAUG”, the binding signal (log2 enrichment (interaction score)) is -5.73 in experiment [1], -7.32 in experiment [2] and below -7.09 in experiment [4].

As for “GGCUAGAACUAGUGGAUCCCCCGGCGCCCGGCGGCUCGAGCCCGGGUAAGUUGAAGGAGUCUGCAUGCCGCCGGGCGCCAUGCCUGCAGGUCGACUCUAGAAAACAUG”, the binding signal (log2 enrichment (interaction score)) in experiment [1] is -5.63; in experiment [2], -7.27; in experiment [3], -1.6; in experiment [4] it was -8.7.
